Source: the supplement of paper PMC3334620
In all, about 33,000 sequences were measured (“E-score (-0.5 to 0.5)”: median about -0.0059, highest 2% from about 0.26 on). The list shows a part of the results.

The sequences below were run against T1, Cin5 (UniProt P40917) (assay: PBM E-score (8-mer binding enrichment) (E-score (-0.5 to 0.5)); higher = stronger / more preferred TF binding). Details: protein concentration: 100 nM; construct: GST-full length.
T1 sequence: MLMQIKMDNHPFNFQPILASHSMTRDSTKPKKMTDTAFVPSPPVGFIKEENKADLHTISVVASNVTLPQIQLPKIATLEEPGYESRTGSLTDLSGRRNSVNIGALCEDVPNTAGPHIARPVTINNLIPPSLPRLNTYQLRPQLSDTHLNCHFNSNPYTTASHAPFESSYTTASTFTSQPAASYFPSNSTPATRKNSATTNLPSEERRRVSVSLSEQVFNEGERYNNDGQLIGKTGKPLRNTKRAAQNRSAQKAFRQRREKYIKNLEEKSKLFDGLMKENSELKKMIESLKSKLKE
Procedure, shortened: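 Using PURExpress in vitro transcription/translation, GST-tagged yeast transcription factors were made in full-length or DNA-binding-domain form. These were applied at about 100-200 nM to double-stranded universal all-10-mer Agilent arrays, and bound protein was detected with fluorescent anti-GST. Scans were normalised with masliner before the Universal PBM Analysis Suite assigned E-scores to ungapped eight-base words pooled with their reverse complements.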

Sequence	PBM E-score
GTAGTATA	0.218
AAATGGCA	0.176
AAGGCTTA	0.0712
AGGCGCCG	-0.0787
AGTGTTAC	0.143
ACCGCATG	-0.148
ACGCTTGA	-0.00096
ATTACCTG	0.113
CCGCAGCA	0.0201
CTTTTAAA	-0.00187
AAGGCCGT	-0.091
AAATGGGG	-0.205
ATAGGACA	-0.0323
CCACGTTA	0.0735
ACTATCCA	0.0276
CTAGAGTA	0.0377
CTCCCTCA	-0.174
AACCCTTC	-0.0592
ATCAATAG	0.0422
AATTCGTC	0.223
ATGGACCA	-0.0099
CGGCGGAA	0.0585
AATCTAAT	0.0853
GTGTGTTA	0.221
ATCCGTGC	0.0553

Sequence	PBM E-score
CGCGCAAC	0.00762
GCACTGAC	-0.141
GAGGACCA	-0.12
GGCTATGA	-0.0844
TATTTGGA	-0.0386
CATAGGAA	-0.08
CCCAGACA	-0.156
CCACGAGA	-0.0932
AGTCCTCC	-0.338
ACACCAGT	0.00112
AGAACCCA	0.0173
GCCCTGGA	-0.163
CCCGATGC	-0.0879
ACACAAAC	0.132
CTTGAAGC	-0.201
GAACTCAC	-0.014
ATAGGCGC	0.00342
AGGAAAGC	-0.125
ACTAAAGT	-0.071
CGACAATC	0.0468
ACGTATAA	0.141
ACCCCTAG	-0.0198
ATTCCAGC	-0.101
CCCCGTCA	-0.0578
AGTCTTCC	-0.156

Sequence	PBM E-score
GGTGAGAC	-0.25
GAATTTGC	0.0868
CGGATGCA	-0.0891
AACTGCAA	0.0942
ATGTTCCC	-0.07
AGCACCAC	-0.265
CTACGAAA	-0.0568
CATAAAGA	0.104
TCAGTACA	0.134
GCCGTGCC	-0.178
AATACCGT	0.182
CTCTGACA	-0.16
CCGCGGAA	0.272
CCCGGACC	-0.231
CACCGTGC	0.0367
CTAGTCCA	-0.0868
CCCGACCG	-0.176
GAATCGGA	0.211
GGCAACGA	0.0486
CGAAGGGA	-0.074
ACGATACG	-0.135
CGGTCTCC	-0.209
CAAAGTGA	-0.0192
CAACCCCA	0.199
CAGACACC	-0.126

Sequence	PBM E-score
AGTTTGAT	0.158
TAGGATCA	-0.00359
AACGCGAG	0.0992
AAACACTT	0.0343
ATGTCAAA	0.147
GACACTTA	-0.116
GCTGCAGA	0.0469
GCCCCGGA	-0.099
GCAACCCA	-0.0066
ACACGCAA	0.163
GGCGCACC	-0.273
CCAAACCA	-0.0896
AGACGTAT	-0.0245
AGTGATCA	-0.0101
GTTATTAA	0.214
AACTGCAG	-0.0807
ATAAAGGC	-0.0903
ACCCGTAC	0.0331
AGAACTCA	0.08
CGGGTCTA	-0.0543
AGTAGTGG	0.164
ACTGACCC	-0.204
AGGCGGGC	-0.173
ACATGTCA	0.0615
AATTAGAA	0.0862

Sequence	PBM E-score
CCCGAATA	0.0813
AAGTAGAC	-0.00598
AAATTATT	0.183
TGCTGTAA	-0.0443
CATGGCAA	0.00441
AACCTGAA	-0.191
GCCGAACA	0.0248
CCAACTAG	0.037
TTCAACAA	0.06
ACACAGGG	-0.00584
CCAATTGC	-0.0198
GGGCTTGA	-0.269
GGGGATCA	-0.18
AAAGTCCC	-0.117
CTGTCTTC	-0.0257
CAAAGCAC	-0.0917
ACTTCGGG	-0.00617
ATATGGAT	0.193
ACCTTGCT	-0.0373
ATCCACTG	0.00934
ACAGCTAG	-0.0798
TAGCGGAA	0.0123
CGGCACGC	-0.24
ACTTTACG	0.119
AAAGTTCA	0.046

Reprinted at random: 5 entries already listed
Sequence	PBM E-score
CATGGCAA	0.00441
AAATTATT	0.183
GGGGATCA	-0.18
ACTTCGGG	-0.00617
ACACAGGG	-0.00584

Later entries.

Sequence	PBM E-score
TGCCAAAA	0.0367
CGTGGGAA	-0.132
GTATTAAC	0.00428
GATAGAGC	-0.026
TGCATGAA	0.155
CCACTAAC	0.0063
CACCGTCG	-0.12
CTTGCATA	0.132
AGCAGATA	-0.0272
GACTCAAC	-0.115
ATTTTGAA	0.0478
ATTTACGG	0.226
GATACAAC	0.0977
ACCACTAT	0.0321
AAAGAGGT	0.0523
ACTGAGGA	-0.165
AAGGGATT	-0.164
ACCCAGCG	-0.148
ATTTAGCC	0.1
CCATTTAC	0.147
GGCGATAA	0.103
CACATCCC	0.00018
ATGATGAA	0.258
AGGCCGAA	-0.161
GACATTAC	0.00091

Sequence	PBM E-score
AGCCGTGG	-0.122
CTCTGGTA	-0.0329
ACAAGGTG	-0.0152
GACGAGGA	-0.0685
TATCGCGA	0.199
ACCAACTG	0.0343
AGATCGTC	-0.162
CATAGTGG	0.0868
AGAAGCAG	-0.0731
ACCCCGAC	-0.107
CGGGCTAA	-0.184
TAATAGAA	0.127
AGTCGAGG	-0.168
CCTTGGGA	-0.163
ACTTACCA	0.0619
CTCAACTA	0.0852
AGACAGAC	0.192
AGGGTCAG	-0.333
ATATAGAA	0.229
GTAGACTA	-0.305
AAAGTCCA	-0.0275
GAACGAAC	-0.016
AGCCTGGA	-0.015
AGGGCTAG	-0.243
ACTATCCT	-0.0237

An excerpt of these results, as comma-separated lines.
Sequence,PBM E-score
AAGGCCGT,-0.091
GAGGACCA,-0.12
AGTCTTCC,-0.156
CAAAGCAC,-0.0917
CCACTAAC,0.0063
GGCGATAA,0.103

Next entries

Sequence	PBM E-score
AATCCCTA	0.00972
GTCCCTGA	-0.146
AGGTGGGG	-0.0141
CGTCACCC	-0.0312
CATAGCGA	-0.123
CACTTTCG	0.0452
CACAGTTC	0.0834
AAAATGGC	0.158
GTCCAGAA	-0.0545
GAGATGGC	0.113
CCGTCCCG	-0.238
ATGACTGG	-0.0808
GAGCTATC	-0.106
CCTTATGC	0.0538
GCGGCGGA	-0.068
TCTTACCA	-0.0191
TGCATTAA	0.0889
AGGGACGA	-0.132
CAAGTAGA	0.00811
CCGGCAAC	-0.102
CTAGGAAA	-0.0194
CAGGGGGG	-0.5
AGCTATTG	0.01
CCTACCGC	-0.217
AGGTGTTC	-0.0429

For convenience, some entries already given.
Sequence	PBM E-score
AGGTGGGG	-0.0141
CGTCACCC	-0.0312
CATAGCGA	-0.123

Next part:

Sequence	PBM E-score
ATGTCGCA	0.0675
CAGAGGGA	-0.285
AGTCGTTG	-0.206
ATACGCGC	0.112
CGGAACAC	0.177
AAGAAGAA	0.0684
GCGATATA	0.186
ACTTCCTG	-0.00107
CGATGCAG	0.00604
GAATCAAA	0.142
ATACTTAC	0.123
TAATGCCA	0.17
GCCTCAAC	-0.161
ACTTATCA	0.0834
ATAAGGGG	-0.0144
TAGACACA	-0.214
AGTTGTCA	0.164
TCTATCCA	-0.0429
TCCTCGCA	-0.148
CAAAGATG	0.0671
CCATCCTC	-0.0966
AGTCCTGG	-0.265
AACTTTGA	-0.0127
AGGAAAGA	-0.0533
ACCCGTCG	-0.229

Sequence	PBM E-score
AGCACTCG	-0.125
CGCATCTC	-0.00049
ACGGATAA	0.217
CCACTTCC	0.00019
ATCAAGAC	0.0454
AGTTTGAC	0.0475
GACCCATC	-0.0756
GAAACACA	-0.0441
CGCGGAAA	0.076
CAGCGACA	-0.141
CGCAGAAC	-0.03
CTGCTGCA	-0.031
CATTTCGG	-0.078
CTCTACGA	-0.111
TACATAGA	0.151
AGCCTCCG	-0.212
CCACGCTA	-0.101
CAGTGTCA	0.00366
ACAGGTTG	-0.119
CCGTTTCA	0.00209
GATACTAA	0.184
AAGTCATA	0.187
GATTGGAA	-0.0265
AACCGGCG	0.0766
GTCTCACA	-0.0506

Sequence	PBM E-score
AGAGGGGA	-0.218
ATGGAAAG	0.168
GCAACCGC	-0.0187
ACGCAAGA	0.0353
TCCTCAAA	-0.246
CGCTCCCC	-0.372
AGGGTAAT	0.098
ACGATTCA	-0.0333
GGCCGACC	-0.211
TATGCAAA	0.0291
AAATGCTA	0.124
AACGGGCA	-0.109
AGAATATA	0.105
AATGCATC	0.148
AAAAAGCT	-0.179
CTCACTAC	0.0475
AATTAGAG	0.146
CCTCGTCA	0.00446
ACTCAGTG	-0.154
CCCTGTAA	0.0657
CTAGTTGA	0.211
CAGCTTGA	0.0482
AGTCTAAG	0.157
GCAGTTCC	-0.0186
AGTACATA	0.155

Sequence	PBM E-score
ATTCTCAA	0.184
AGGTTAAA	0.0293
ACACAGAC	0.0456
CGAGGGCG	-0.182
ATATATGG	0.24
ACCATATC	0.196
CGTAATCC	0.383
GAGAGACA	-0.0721
ACTGTACC	-0.0653
AGCCGCAG	-0.188
GTCTGCAA	-0.163
ATTGTCAG	0.104
AGCGACCC	-0.221
AGGGGATC	0.069
AGATAAGG	-0.0472
ACAAGCCT	-0.147
AGGTATAT	0.193
TAGTGACA	0.168
GGTAGCTA	-0.238
CTAAGGTA	0.131
ACTTGTCC	0.0975
ATTAGCGA	0.108
ATTACATC	0.31
CACTGGCA	-0.0699
CGGAGGCC	-0.278

Sequence	PBM E-score
CTATTGAA	0.0131
TCATACAA	0.203
CCAGCTCG	-0.101
ATATTCTG	0.126
CTTACGCA	0.107
AATACGTC	0.181
AAGCATTC	0.189
ATTCCGAG	0.182
CGGGGACC	-0.107
TTAAGTAA	0.423
CTAAGGAC	-0.149
GACAAAAC	0.172
ATTTATGC	0.121
AATCGTCT	0.0498
AGACTACA	-0.00466
CAGGTTCG	-0.0082
ACGCTTAG	0.0472
AGGCGTCA	-0.199
AGTGTATG	0.0437
AGTGCCAG	-0.217
ACGTAGTA	0.037
ACGGGCGA	-0.125
ACTGATGG	-0.0587
ACAGGTGC	-0.138
CACGAAGA	0.132

Sequence	PBM E-score
ATGTCATC	0.142
CAACAGCC	0.0168
CCGGTACA	-0.00292
AGCCTACA	-0.13
ACCGTGAA	-0.102
AGGGCATG	-0.231
GGGCCTGA	-0.351
CACTCGCC	0.0335
GGGGCGCA	-0.162
ACACGCTC	-0.00365
CAGACTCG	-0.177
ACATTGAA	0.0676
ATCTAGCC	-0.0446
ACCTCAGC	0.0198
CCGCACCG	-0.0359
ATTAGCTC	0.0538
ATAACCTA	0.111
CTTGCCGA	-0.106
AATATGAG	0.0321
